Experimental data from patent US20070031832A1.
No constants are given. Whether binding was seen depends on the method and setting. Some results given as binding are weak or reduced against the parent protein; the word gives no strength.

Chains of the proteins cited; added tags and fusions are not shown. Residues count along the entry.
UniProt P05412, residues 250-331: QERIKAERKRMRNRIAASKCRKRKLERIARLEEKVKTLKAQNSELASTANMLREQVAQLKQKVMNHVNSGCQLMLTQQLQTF

Molecular target: JUN1 (UniProt P05412)
Experiment: yeast forward two-hybrid (peptide in pDD bait, JUN1 prey), growth in the absence of uracil

B1: Peptide 4 (peptide)
peptide: RSDYKDDDDKAYQSMFCESRFLDNASAPAMRNAKRRSEERVLCNLTVHRKHILHKITSDDLFRTAFCRNPFIFYGHKMMRMID
  binding: binds

## RSDYKDDDDKAYQSIIANEEEREKNFASSKKDGSYTDLL [Peptide 8]
  binding: binds

## RSDYKDDDDKIYSSILWGTKWCVLLVITP [Peptide 20]
  binding: binds

## RSDYKDDDDKLYQSLLTATKELLFVAPVAKAFTSCD [Peptide 24]
  binding: binds

## RSDYKDDDDNTPHSSDGHNNP [Peptide 32]
  binding: binds

## RSDYKDDDDKAYQSIKWPM [Peptide 33]
  binding: binds

## RSDYKDDDDKAYQSINSSPVLPENSQELSLHLKQHVTKS [Peptide 34]
  binding: binds

## RSDYKDDDDKGLQGRRRQGYQSIKP [Peptide 36]
  binding: binds

## SDYKDDDDKAYQSIHPRLTK [Peptide 43]
  binding: binds

B2: Peptide 58 (peptide)
peptide: RSDYKDDDDKAYQSIMAVAAQQPVAFLVGRQRRRGQVGIDSGDQHLRTPLFHELCRRRPCSLAWYQLMHRYRY
  binding: binds

## RSDYKDDDDKANQLPKILAGRLIFIKC [Peptide 60]
  binding: binds

B3: Peptide 66 (peptide)
peptide: RSDYKDDDDKAYQSIIGAGKSTLIKALTGVYHADRGTIWLEGQAISPKNTAHAQQCRRRPCSLTWYQLMHRYRY
  binding: binds

## RSDYKDDDDKAYQSIKWPM [Peptide 79]
  binding: binds

## RSDYKDDDDKAYQSSTGSAAILFNFRRMGIVIIIQI [Peptide 80]
  binding: binds
